Results taken from patent publication US20150266962A1.
These are yes or no findings as the source states them, for the method shown. Some entries that bind do so weakly or less than the wild type.

By UniProt entry, the sequences of proteins in these tests, tags left out. Residues count along the entry.
UniProt P35225, residues 35-146: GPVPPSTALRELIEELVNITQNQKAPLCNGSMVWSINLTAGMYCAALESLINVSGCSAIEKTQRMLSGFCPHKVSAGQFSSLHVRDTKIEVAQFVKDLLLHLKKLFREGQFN

Key:
[1] = biological target: IL-13 (UniProt P35225); assay: competition ELISA, competitor of biotinylated IL-13Rα2-Fc for IL-13 (FIG. 3)
[2] = biological target: IL-13 (UniProt P35225); assay: competition ELISA: IL-13 captured on an anti-Flag coated plate, constant amounts of IL-13 and biotinylated IL-13Rα2-Fc (the competitor), detected with streptavidin-HRP

B1: naked IL-13Rα2 (positive control competitor) (receptor, not shown: a dimerising Fc or GST; large carriers; small tags and cut ends)
chain: DTEIKVNPPQDFEIVDPGYLGYLYLQWQPPLSLDHFKECTVEYELKYRNIGSETWKTIITKNLHYKDGFDLNKGIEAKIHTLLPWQCTNGSEVQSSWAETTYWISPQGIPETKVQDMDCVYYNWQYLLCSWKPGIGVLLDTNYNLFYWYEGLDHALQCVDYIKADGQNIGCRFPYLEASDYKDFYICVNGSSENKPIRSSYFTFQLQNIVKPLPPVYLTFTRESSCEIKLKWSIPLGPIPARCFDYEIEIREDDTTLVTATVENETYTLKTTNETRQLCFVVRSKVNIYCSDDGIWSEWSDKQCWEGEDLSKKTLLR
In the case of B1, the binding [1] is reported as “binds” and the binding [2] is reported as “binds”.
